Experimental findings from PubChem BioAssay AID493014 (National Center for Advancing Translational Sciences (NCATS), 2011) are described below.

Some of the results follow. Further columns of the screen follow, without active or inactive calls. Most of these compounds were active or inconclusive in the main read-out, so they are no random draw. Words in brackets tell the shape of the fitted curve; partial curves, single points and poor fits give uncertain potencies.

This assay in a line: qHTS Assay to Find Inhibitors of Chronic Active B-Cell Receptor Signaling. The settings on record: ABC-DLBCL IkBa-CBG/CBR reporter, luminescence ratio (green luciferase fused to IkBa over red control in TMD8 lymphoma cells), 4 h. The method, boiled down:
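Compounds up to 46 uM were incubated four hours with TMD8 cells whose green CBG68 luciferase is fused to IkappaBalpha; red CBR luminescence normalised the signal, and concentration-effect curves were fitted to fusion, red and ratio data.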

The mark [1] stands for this setting: measured here: CBR red luminescence, cell number.
Setting [2] is: measured here: IkBa-CBG green luminescence.

As to `O=C(Nc1cc(C(F)(F)F)ccc1N1CCCC1)C1CCCO1` (stereo not drawn), the AC50 under setting [1] was 18.4 µM [rising, partial curve, poor fit].
The same measure, in the same setting: under `Oc1ccc(-c2nc3ccccn3c2NCc2ccc3c(c2)OCO3)cc1` stands 2.82 µM [falling, full curve, poor fit]; under `O=C(OCc1cc(=O)oc2cc(O)ccc12)c1cc(S(=O)(=O)N2CCOCC2)ccc1F`, 29.1 µM [falling, single point].
For the molecule `Cc1ccc(OC(C)C(=O)Nc2cc(C)on2)cc1` (stereo not drawn), under setting [1], the AC50 was 35.5 µM [rising, single point].
Still for that read-out and setting: the value for `COc1ccc(N(CC(=O)N2CCCCCC2)S(=O)(=O)c2c(C)[nH]c(=O)[nH]c2=O)cc1` was 20.6 µM [falling, single point]; that for `O=C(c1cccs1)N(Cc1cccnc1)c1nc2c(Cl)cccc2s1` was 25.1 µM [falling, partial curve, poor fit].
Turning to `COc1ccccc1/C=C/C(=O)OCC(=O)NC1CCCCCC1`, under setting [1], the AC50 was 4.61 µM [falling, full curve].
The same measure, in the same setting: under `NC(=O)C1CCN(C(=O)COc2ccc(Nc3ccccc3)cc2)CC1` stands 12.6 µM [rising, single point].
`CN(C)C(=O)[C@@H]1C[C@H]1[C@@H](NC(=O)OCc1ccccc1)c1ccccc1`: the AC50 under setting [2] was 18.4 µM [falling, partial curve, poor fit].
Turning to `CCOc1ccccc1N(C(=O)c1ccco1)C(C(=O)NC1CCCC1)c1cccnc1` (stereo not drawn), the AC50 under setting [1] is 2.31 µM [rising, partial curve, poor fit].
The same measure, in the same setting: under `CC1C=CCC2C(=O)N(c3cccc(C(=O)Nc4ccc(Br)cc4)c3)C(=O)C12` (stereo not drawn) stands 17.8 µM [falling, partial curve].
Regarding `Cc1ccc(NNC2CC(=O)N(c3cccc(Cl)c3)C2=O)cc1` (stereo not drawn), the AC50 under setting [1] was 25.1 µM [falling, single point].
Still for that read-out and setting: under `CC(=O)Nc1ccc2oc(-c3ccccc3)nc2c1` stands 25.1 µM [falling, single point].
The same measure, in the same setting: under `CN(CC(=O)NCc1ccco1)S(=O)(=O)c1ccc2c(c1)n(C)c(=O)c(=O)n2C` stands 4.61 µM [falling, full curve, poor fit].
On the same count and under the same terms, under `CC1CCN(CC(=O)Nc2ccc(S(=O)(=O)NC3CC3)cc2)CC1` stands 6.31 µM [falling, single point].
`Cc1cc(N2C(=O)C=CC2=O)c([N+](=O)[O-])cc1C`: the AC50 by setting is: under setting [1], 10.3 µM [falling, partial curve]; under setting [2], 18.4 µM [rising, partial curve, poor fit].
On to `O=C(Nc1cc(Cl)c(O)c(Cl)c1)C1CCCO1` (stereo not drawn), for which the AC50 under setting [1] was 6.51 µM [falling, partial curve, poor fit].
Same read-out and setting: the value for `CC(C)C(NC(=O)c1ccco1)C(=O)NCC(c1ccco1)N1CCCCC1` (stereo not drawn) was 0.517 µM [rising, partial curve, poor fit]; that for `CCCC1CCc2c(c3ccccc3[nH]c2=O)O1` (stereo not drawn) was 4.61 µM [rising, single point].
Same read-out and setting: under `C/C(=N\Nc1ccc(C(=O)O)cc1)c1ccc(-n2ccnc2)cc1` stands 0.501 µM [falling, full curve]; under `CCOc1cccc(/C=C/c2ccc3ccccc3n2)c1OC(C)=O`, 22.4 µM [falling, single point].
For `CCOC(=O)c1ccc(NC(=S)NCCC2=CCCCC2)cc1`, the AC50 under setting [1] is 5.17 µM [falling, partial curve].
Still for that read-out and setting: under `CCCNC(=S)Nc1cc2oc3ccccc3c2cc1OC` stands 0.708 µM [rising, full curve].
Same read-out and setting: under `COc1cc(NC(=O)COC(=O)C2CC2)c(C)cc1[N+](=O)[O-]` stands 3.26 µM [rising, single point]; under `COCCN(CCOc1cc(C)cc(C)c1)Cc1ccc(Cl)cc1`, 0.1 µM [rising, full curve, poor fit]; under `Cc1ccc(S(=O)(=O)NCCC(=O)Nc2nccs2)cc1`, 14.1 µM [falling, partial curve].
The same measure, in the same setting: the value for `Cc1c(C(=O)N2CCN(c3ccccn3)CC2)oc2c(F)cccc12` was 35.5 µM [falling, single point].
For `COc1cc(C(=O)OCC(=O)N2CC(C)OC(C)C2)cc(OC)c1OC` (stereo not drawn), under setting [1], the AC50 was 5.62 µM [rising, single point].
Same read-out and setting: under `COc1cc(SC)ccc1C(=O)Nc1cccc(S(=O)(=O)NC2=NCCC2)c1` stands 16.4 µM [falling, partial curve, poor fit]; under `Cc1ccccc1OCC(=O)OCC(=O)c1ccc(-c2ccccc2)cc1`, 4.61 µM [rising, full curve].
The same measure, in the same setting: the value for `Clc1cccc(N/N=C(\Cc2nc3ccccc3[nH]2)c2ccccc2)c1` was 16.4 µM [falling, partial curve].
As to `COc1ccc(C2=C(c3ccc(OC)c(OC)c3)CN3CCCCC3C2)cc1` (stereo not drawn), the AC50 under setting [2] was 16.4 µM [falling, partial curve, poor fit].
Regarding `CCCCn1nc(C(=O)Nc2nc3c(s2)CCCC3)c2ccccc2c1=O`, the AC50 under setting [1] was 1.84 µM [rising, single point].
For the molecule `CC1=C(C)CS(=O)N(S(=O)(=O)c2ccccc2)C1` (stereo not drawn), the AC50 was 18.4 µM [rising, partial curve] under setting [1] and 29.1 µM [falling, single point] under setting [2].
For `CCOC(=O)c1ccccc1NC(=O)CSc1nnnn1C1CCCCC1`, the AC50 under setting [1] was 11.2 µM [falling, partial curve].
With `CSc1nc(Sc2ccccc2Cl)c2ccccc2n1`, the AC50 was 18.4 µM [rising, single point] under setting [1] and 29.1 µM [falling, single point] under setting [2].
Regarding `CC(C)CCNC(=O)CCc1nnc2n(CCCOC(C)C)c(=O)c3ccccc3n12`, the AC50 under setting [1] is 3.16 µM [rising, full curve, poor fit].
Same read-out and setting: the value for `O=C1C=C(c2ccc(Cl)c(C(F)(F)F)c2)C[C@@H](c2ccc(F)cc2)C1` was 20.6 µM [rising, single point]; that for `O=C(CCCOc1ccc(Cl)cc1)Nc1cccc(C(=O)O)c1` was 17.8 µM [falling, partial curve, poor fit].
Still for that read-out and setting: under `CC(=O)Nc1ccc(N(CC(O)Cn2c3ccccc3c3ccccc32)S(=O)(=O)c2ccc(C)cc2)cc1` (stereo not drawn) stands 13 µM [falling, partial curve].
